This data set can be described thus: Proteomics analysis (trypsin digest, LC-MS/MS) of hMSC ghosts and derived CDLs, conditioned or unconditioned by PC3 medium. The settings on record: LC-MS/MS peak area per protein; for Ratio of expression Cond. CDLs/Cond. Ghosts: CDLs derived from conditioned hMSCs versus conditioned ghosts; for Ratio of expression Cond Ghosts/Ghosts: hMSC ghosts conditioned by PC3 medium versus unconditioned ghosts. Details: species or system human.

B1: Q14554 (protein, UniProt Q14554 1-519, looked up)
chain: MARAGPAWLLLAIWVVLPSWLSSAKVSSLIERISDPKDLKKLLRTRNNVLVLYSKSEVAAENHLRLLSTVAQAVKGQGTICWVDCGDAESRKLCKKMKVDLSPKDKKVELFHYQDGAFHTEYNRAVTFKSIVAFLKDPKGPPLWEEDPGAKDVVHLDSEKDFRRLLKKEEKPLLIMFYAPWCSMCKRMMPHFQKAATQLRGHAVLAGMNVYSSEFENIKEEYSVRGFPTICYFEKGRFLFQYDNYGSTAEDIVEWLKNPQPPQPQVPETPWADEGGSVYHLTDEDFDQFVKEHSSVLVMFHAPWCGHCKKMKPEFEKAAEALHGEADSSGVLAAVDATVNKALAERFHISEFPTLKYFKNGEKYAVPVLRTKKKFLEWMQNPEAPPPPEPTWEEQQTSVLHLVGDNFRETLKKKKHTLVMFYAPWCPHCKKVIPHFTATADAFKDDRKIACAAVDCVKDKNQDLCQQEAVKGYPTFHYYHYGKFAEKYDSDRTELGFTNYIRALREGDHERLGKKKEEL
modifications: full-length
On to B1, for which the “Ratio of expression Cond. CDLs/Cond. Ghosts” value stood at 5% and the “Ratio of expression Cond Ghosts/Ghosts” value is recorded as 100%.

B2: O75964 (protein, UniProt O75964 1-103, looked up)
chain: MAQFVRNLVEKTPALVNAAVTYSKPRLATFWYYAKVELVPPTPAEIPRAIQSLKKIVNSAQTGSFKQLTVKEAVLNGLVATEVLMWFYVGEIIGKRGIIGYDV
modifications: full-length
As for B2, the “Ratio of expression Cond. CDLs/Cond. Ghosts” value is on record as 5% and the “Ratio of expression Cond Ghosts/Ghosts” value is on record as 100%.

B3: O60716 (protein, UniProt O60716 1-968, looked up)
chain: MDDSEVESTASILASVKEQEAQFEKLTRALEEERRHVSAQLERVRVSPQDANPLMANGTLTRRHQNGRFVGDADLERQKFSDLKLNGPQDHSHLLYSTIPRMQEPGQIVETYTEEDPEGAMSVVSVETSDDGTTRRTETTVKKVVKTVTTRTVQPVAMGPDGLPVDASSVSNNYIQTLGRDFRKNGNGGPGPYVGQAGTATLPRNFHYPPDGYSRHYEDGYPGGSDNYGSLSRVTRIEERYRPSMEGYRAPSRQDVYGPQPQVRVGGSSVDLHRFHPEPYGLEDDQRSMGYDDLDYGMMSDYGTARRTGTPSDPRRRLRSYEDMIGEEVPSDQYYWAPLAQHERGSLASLDSLRKGGPPPPNWRQPELPEVIAMLGFRLDAVKSNAAAYLQHLCYRNDKVKTDVRKLKGIPVLVGLLDHPKKEVHLGACGALKNISFGRDQDNKIAIKNCDGVPALVRLLRKARDMDLTEVITGTLWNLSSHDSIKMEIVDHALHALTDEVIIPHSGWEREPNEDCKPRHIEWESVLTNTAGCLRNVSSERSEARRKLRECDGLVDALIFIVQAEIGQKDSDSKLVENCVCLLRNLSYQVHREIPQAERYQEAAPNVANNTGPHAASCFGAKKGKDEWFSRGKKPIEDPANDTVDFPKRTSPARGYELLFQPEVVRIYISLLKESKTPAILEASAGAIQNLCAGRWTYGRYIRSALRQEKALSAIADLLTNEHERVVKAASGALRNLAVDARNKELIGKHAIPNLVKNLPGGQQNSSWNFSEDTVISILNTINEVIAENLEAAKKLRETQGIEKLVLINKSGNRSEKEVRAAALVLQTIWGYKELRKPLEKEGWKKSDFQVNLNNASRSQSSHSYDDSTLPLIDRNQKSDKKPDREEIQMSNMGSNTKSLDNNYSTPNERGDHNRTLDRSGDLGDMEPLKGTTPLMQDEGQESLEEELDVLVLDDEGGQVSYPSMQKI
modifications: full-length
As for B3, the “Ratio of expression Cond. CDLs/Cond. Ghosts” value was 4% and the “Ratio of expression Cond Ghosts/Ghosts” value came out at 220%.

B4: Q12931 (protein, UniProt Q12931 1-704, looked up)
chain: MARELRALLLWGRRLRPLLRAPALAAVPGGKPILCPRRTTAQLGPRRNPAWSLQAGRLFSTQTAEDKEEPLHSIISSTESVQGSTSKHEFQAETKKLLDIVARSLYSEKEVFIRELISNASDALEKLRHKLVSDGQALPEMEIHLQTNAEKGTITIQDTGIGMTQEELVSNLGTIARSGSKAFLDALQNQAEASSKIIGQFGVGFYSAFMVADRVEVYSRSAAPGSLGYQWLSDGSGVFEIAEASGVRTGTKIIIHLKSDCKEFSSEARVRDVVTKYSNFVSFPLYLNGRRMNTLQAIWMMDPKDVREWQHEEFYRYVAQAHDKPRYTLHYKTDAPLNIRSIFYVPDMKPSMFDVSRELGSSVALYSRKVLIQTKATDILPKWLRFIRGVVDSEDIPLNLSRELLQESALIRKLRDVLQQRLIKFFIDQSKKDAEKYAKFFEDYGLFMREGIVTATEQEVKEDIAKLLRYESSALPSGQLTSLSEYASRMRAGTRNIYYLCAPNRHLAEHSPYYEAMKKKDTEVLFCFEQFDELTLLHLREFDKKKLISVETDIVVDHYKEEKFEDRSPAAECLSEKETEELMAWMRNVLGSRVTNVKVTLRLDTHPAMVTVLEMGAARHFLRMQQLAKTQEERAQLLQPTLEINPRHALIKKLNQLRASEPGLAQLLVDQIYENAMIAAGLVDDPRAMVGRLNELLVKALERH
modifications: full-length
Turning to B4, the “Ratio of expression Cond. CDLs/Cond. Ghosts” value worked out at 4% and the “Ratio of expression Cond Ghosts/Ghosts” value turned out to be 100%.

B5: Q9Y2B0 (protein, UniProt Q9Y2B0 1-182, looked up)
chain: MKGWGWLALLLGALLGTAWARRSQDLHCGACRALVDELEWEIAQVDPKKTIQMGSFRINPDGSQSVVEVPYARSEAHLTELLEEICDRMKEYGEQIDPSTHRKNYVRVVGRNGESSELDLQGIRIDSDISGTLKFACESIVEEYEDELIEFFSREADNVKDKLCSKRTDLCDHALHISHDEL
modifications: full-length
As to B5, the “Ratio of expression Cond. CDLs/Cond. Ghosts” value turned out to be 4% and the “Ratio of expression Cond Ghosts/Ghosts” value came out at 100%.

B6: O60506 (protein, UniProt O60506 1-623, looked up)
chain: MATEHVNGNGTEEPMDTTSAVIHSENFQTLLDAGLPQKVAEKLDEIYVAGLVAHSDLDERAIEALKEFNEDGALAVLQQFKDSDLSHVQNKSAFLCGVMKTYRQREKQGTKVADSSKGPDEAKIKALLERTGYTLDVTTGQRKYGGPPPDSVYSGQQPSVGTEIFVGKIPRDLFEDELVPLFEKAGPIWDLRLMMDPLTGLNRGYAFVTFCTKEAAQEAVKLYNNHEIRSGKHIGVCISVANNRLFVGSIPKSKTKEQILEEFSKVTEGLTDVILYHQPDDKKKNRGFCFLEYEDHKTAAQARRRLMSGKVKVWGNVGTVEWADPIEDPDPEVMAKVKVLFVRNLANTVTEEILEKAFSQFGKLERVKKLKDYAFIHFDERDGAVKAMEEMNGKDLEGENIEIVFAKPPDQKRKERKAQRQAAKNQMYDDYYYYGPPHMPPPTRGRGRGGRGGYGYPPDYYGYEDYYDYYGYDYHNYRGGYEDPYYGYEDFQVGARGRGGRGARGAAPSRGRGAAPPRGRAGYSQRGGPGSARGVRGARGGAQQQRGRGVRGARGGRGGNVGGKRKADGYNQPDSKRRQTNNQNWGSQPIAQQPLQGGDHSGNYGYKSENQEFYQDTFGQQWK
modifications: full-length
For the molecule B6, the “Ratio of expression Cond. CDLs/Cond. Ghosts” value came out at 5% and the “Ratio of expression Cond Ghosts/Ghosts” value amounted to 100%.

B7: Q7Z7H5 (protein, UniProt Q7Z7H5 1-227, looked up)
chain: MAGVGAGPLRAMGRQALLLLALCATGAQGLYFHIGETEKRCFIEEIPDETMVIGNYRTQMWDKQKEVFLPSTPGLGMHVEVKDPDGKVVLSRQYGSEGRFTFTSHTPGDHQICLHSNSTRMALFAGGKLRVHLDIQVGEHANNYPEIAAKDKLTELQLRARQLLDQVEQIQKEQDYQRYREERFRLTSESTNQRVLWWSIAQTVILILTGIWQMRHLKSFFEAKKLV
modifications: full-length
For B7, the “Ratio of expression Cond. CDLs/Cond. Ghosts” value turned out to be 5% and the “Ratio of expression Cond Ghosts/Ghosts” value is 100%.

B8: P51572 (protein, UniProt P51572 1-246, looked up)
chain: MSLQWTAVATFLYAEVFVVLLLCIPFISPKRWQKIFKSRLVELLVSYGNTFFVVLIVILVLLVIDAVREIRKYDDVTEKVNLQNNPGAMEHFHMKLFRAQRNLYIAGFSLLLSFLLRRLVTLISQQATLLASNEAFKKQAESASEAAKKYMEENDQLKKGAAVDGGKLDVGNAEVKLEEENRSLKADLQKLKDELASTKQKLEKAENQVLAMRKQSEGLTKEYDRLLEEHAKLQAAVDGPMDKKEE
modifications: full-length
With B8, the “Ratio of expression Cond. CDLs/Cond. Ghosts” value stood at 4% and the “Ratio of expression Cond Ghosts/Ghosts” value was found to be 100%.

B9: P18084 (protein, UniProt P18084 1-799, looked up)
chain: MPRAPAPLYACLLGLCALLPRLAGLNICTSGSATSCEECLLIHPKCAWCSKEDFGSPRSITSRCDLRANLVKNGCGGEIESPASSFHVLRSLPLSSKGSGSAGWDVIQMTPQEIAVNLRPGDKTTFQLQVRQVEDYPVDLYYLMDLSLSMKDDLDNIRSLGTKLAEEMRKLTSNFRLGFGSFVDKDISPFSYTAPRYQTNPCIGYKLFPNCVPSFGFRHLLPLTDRVDSFNEEVRKQRVSRNRDAPEGGFDAVLQAAVCKEKIGWRKDALHLLVFTTDDVPHIALDGKLGGLVQPHDGQCHLNEANEYTASNQMDYPSLALLGEKLAENNINLIFAVTKNHYMLYKNFTALIPGTTVEILDGDSKNIIQLIINAYNSIRSKVELSVWDQPEDLNLFFTATCQDGVSYPGQRKCEGLKIGDTASFEVSLEARSCPSRHTEHVFALRPVGFRDSLEVGVTYNCTCGCSVGLEPNSARCNGSGTYVCGLCECSPGYLGTRCECQDGENQSVYQNLCREAEGKPLCSGRGDCSCNQCSCFESEFGKIYGPFCECDNFSCARNKGVLCSGHGECHCGECKCHAGYIGDNCNCSTDISTCRGRDGQICSERGHCLCGQCQCTEPGAFGEMCEKCPTCPDACSTKRDCVECLLLHSGKPDNQTCHSLCRDEVITWVDTIVKDDQEAVLCFYKTAKDCVMMFTYVELPSGKSNLTVLREPECGNTPNAMTILLAVVGSILLVGLALLAIWKLLVTIHDRREFAKFQSERSRARYEMASNPLYRKPISTHTVDFTFNKFNKSYNGTVD
modifications: full-length
With B9, the “Ratio of expression Cond. CDLs/Cond. Ghosts” value is recorded as 5% and the “Ratio of expression Cond Ghosts/Ghosts” value was 100%.

B10: Q6P587 (protein, UniProt Q6P587 1-221, looked up)
chain: MAASRPLSRFWEWGKNIVCVGRNYADHVREMRSAVLSEPVLFLKPSTAYAPEGSPILMPAYTRNLHHELELGVVMGKRCRAVPEAAAMDYVGGYALCLDMTARDVQDECKKKGLPWTLAKSFTASCPVSAFVPKEKIPDPHKLKLWLKVNGELRQEGETSSMIFSIPYIISYVSKIITLEEGDIILTGTPKGVGPVKENDEIEAGIHGLVSMTFKVEKPEY
modifications: full-length
For B10, the “Ratio of expression Cond. CDLs/Cond. Ghosts” value is on record as 5% and the “Ratio of expression Cond Ghosts/Ghosts” value is 100%.

The values are drawn from US11065203B2, “Liposomal compositions and uses of same” (Technion Research & Development Foundation Limited, priority 2009, dated 2021).
